We go through 50 compounds from the supplement of paper PMC11060735.

SMILES strings stand for the structures. Values joined by “and” are separate entries in the source; they are usually repeats but may differ in a detail not shown here. Equal values may be shown once. Where a name gives a salt, the structure may show the parent alone. ± gives the standard deviation of the averaged measurements. In all, about 1,800 compounds were measured (“GFP- (p16Ink4a-) cell count relative to negative-control wells”: median about 0.99, lowest 2% from about 0.5 on). This is one part of the list.

The test system of the experiment is mouse p16Ink4a+/- lung fibroblasts (INKBRITE, bleomycin-injured). Nature of the experiment: GFP- (p16Ink4a-) cell count relative to negative-control wells (fold of vehicle); higher = more p16Ink4a- cells surviving. The note with it: 1 µM; 3 days.
With `NC(=S)N/N=C/c1ncccc1N` [Triapine], the GFP- is 0.898.
Compound `CCCCCCCCCCCCc1ccc(S(=O)(=O)Nc2nncs2)cc1` displayed a GFP- of 0.919.
Under `COc1cc(C)c(/C=C/C(C)=C/C=C/C(C)=C/C(=O)O)c(C)c1C` [Acitretin] stands 0.862.
As for `COc1cc(Nc2ncc3c(n2)-c2ccc(Cl)cc2C(c2c(F)cccc2OC)=NC3)ccc1C(=O)O` [Alisertib], the GFP- came to 0.657 ± 0.16.
The value for `O=C(O)CC[C@H]1CC[C@@](c2cc(F)ccc2F)(S(=O)(=O)c2ccc(Cl)cc2)CC1` was 0.8; that for `O=C(O)[C@H](Cc1c[nH]c2ccccc12)N1C(=O)c2ccccc2C1=O` was 1.1 ± 0.13; that for `CN1CCN(C2=Nc3ccccc3Oc3ccc(Cl)cc32)CC1` [Loxapine] was 0.935.
Under `COc1ccc(Cn2ccc3ccc(C(=O)NO)cc32)cc1` stands 0.864 ± 0.18; under `CCO/C(O)=C1\C(C)=NC(C)=C(C(=O)OC)C1c1cccc([N+](=O)[O-])c1` (stereo not given) [Nitrendipine], 1.18.
The value for `CO[C@H]1C(=O)[C@]2(C)[C@@H](OC)C[C@H]3OC[C@@]3(OC(C)=O)[C@H]2[C@H](OC(=O)c2ccccc2)[C@]2(O)C[C@H](OC(=O)[C@H](O)[C@@H](NC(=O)OC(C)(C)C)c3ccccc3)C(C)=C1C2(C)C` [Cabazitaxel] was 0.558; that for `Cc1ccc(S(=O)(=O)c2ccc([N+](=O)[O-])o2)cc1` was 0.415; that for `CN1CCc2nc(C(=O)N[C@@H]3C[C@@H](C(=O)N(C)C)CC[C@@H]3NC(=O)C(=O)Nc3ccc(Cl)cn3)sc2C1` [Edoxaban] was 1.01.
Turning to `CN(C)CCN1C(=O)c2cccc3cc(N)cc(c23)C1=O` [Amonafide], the GFP- was found to be 0.867.
Under `Oc1ncnc2[nH]ncc12` [Allopurinol] stands 0.898; under `CC1CCc2cc(F)cc3c(=O)c(C(=O)O)cn1c23` (stereo not given) [Flumequine], 0.955.
The value for `COc1c2occc2cc2ccc(=O)oc12` [Methoxsalen] was 0.975.
The value for `N#CC[C@@H](C1CCCC1)n1cc(-c2ncnc3[nH]ccc23)cn1` [S-Ruxolitinib] was 0.892 ± 0.077; that for `CC(C)N(CCCNC(=O)Nc1ccc(C(C)(C)C)cc1)C[C@H]1O[C@@H](n2cc(Br)c3c(N)ncnc32)[C@H](O)[C@@H]1O` was 1.01 ± 0.042.
Regarding `C[C@@H]1CCO[C@H]2Cn3cc(C(=O)NCc4ccc(F)cc4F)c(=O)c(O)c3C(=O)N12` [Dolutegravir], the GFP- came to 0.916.
`c1ccc2c(c1)CCCC2C1=NCCN1` (stereo not given) [Tetryzoline] showed a GFP- of 0.987.
The value for `CCCCCCCCCCCC1=C(O)C(O)=CC(=O)C1=O` [Embelin] was 0.943; that for `CN(C/C=C/C#CC(C)(C)C)Cc1cccc2ccccc12` [Terbinafine, Terbinafine Hydrochloride] was 1.01 and 1.04; that for `O=C1NC(=O)C(c2ccccc2)(c2ccccc2)N1` [Phenytoin] was 1.14 and 1.07.
The value for `CCN(Cc1ccncc1)C(=O)C(CO)c1ccccc1` (stereo not given) [Tropicamide] was 0.967; that for `O=C(/C=C/c1cccc(S(=O)(=O)Nc2ccccc2)c1)NO` [Belinostat] was 0.623 ± 0.042.
Compound `Cc1cc(Nc2cc(CN3CCOCC3)c3nc(C)c(Cc4ccc(Cl)cc4F)n3n2)[nH]n1` returned a GFP- of 0.793 ± 0.073.
The compound `COc1c(N2C[C@@H]3CCCN[C@@H]3C2)c(F)cc2c(=O)c(C(=O)O)cn(C3CC3)c12` [Moxifloxacin] had a GFP- of 0.975.
Turning to `C=CC(=O)Nc1cccc(Oc2nc(Nc3ccc(N4CCN(C)CC4)cc3OC)ncc2Cl)c1`, the GFP- turned out to be 1.09.
Turning to `Cc1ccc(Sc2cncc3sc(C(N)=O)cc23)cc1`, the GFP- is 1.
Under `O=C(COc1ccc(C(=O)c2ccccc2)cc1)NC1CCN(Cc2ccccc2)CC1` [AdipoRon] stands 0.983; under `CC1(C)S[C@@H]2[C@H](NC(=O)[C@H](N)c3ccc(O)cc3)C(=O)N2[C@H]1C(=O)O` [Amoxicillin], 1.02 and 0.968; under `CNC(=O)c1cc(COc2nnc(Nc3ccc(Cl)cc3)c3ccoc23)ccn1` [Telatinib], 0.91.
The value for `CO[C@H]1/C=C/O[C@@]2(C)Oc3c(C)c(O)c4c(O)c(c(/C=N/N5CCN(C)CC5)c(O)c4c3C2=O)NC(=O)/C(C)=C\C=C\[C@H](C)[C@H](O)[C@@H](C)[C@@H](O)[C@@H](C)[C@H](OC(C)=O)[C@@H]1C` [Rifampicin] was 0.929; that for `NC(=O)c1ccc(-c2nc(-c3ccc4c(c3)OCO4)c(-c3ccccn3)[nH]2)cc1` was 1.22; that for `COc1ccc(-c2nc3cc(C4=NNC(=O)CC4C)ccc3[nH]2)cc1` (stereo not given) [Pimobendan] was 1.02.
In turn, `CCCCC(=O)O[C@H]1CC[C@H]2[C@@H]3CCc4cc(O)ccc4[C@H]3CC[C@]12C` [Estradiol valerate] returned a GFP- of 1.05.
The compound `COc1cc(N2CCN(C)CC2)ccc1Nc1nccc(-c2cn(C)c3cnccc23)n1` came in with a GFP- of 0.993.
The value for `Cc1ccc(Nc2c(F)cccc2Cl)c(CC(=O)O)c1` [Lumiracoxib] was 1.11.
In turn, `NC(=O)c1ccc(N(C(N)=O)c2c(F)cccc2F)nc1-c1ccc(F)cc1F` had a GFP- of 0.986.
As to `Cc1cnc(NC(=O)C2=C(O)c3ccccc3S(=O)(=O)N2C)s1` [Meloxicam], the GFP- is 1.03.
Under `O=C1C(=O)N(Cc2ccc(Cl)c(Cl)c2)c2ccccc21` [Apoptosis Activator 2] stands 0.931; under `CCC(CC)(NC(=O)C(C)C)C(=O)N[C@@H](CCCN=C(N)N)C(=O)NC1(C(=O)NC(c2ccc(F)cc2)c2ccc(F)cc2)CCCC1`, 1.06 ± 0.055.
The compound `COC[C@H](NC(=O)c1cnc(C)s1)C(=O)N[C@@H](COC)C(=O)N[C@@H](Cc1ccccc1)C(=O)C1(C)CO1` (stereo not given in full) [Oprozomib] had a GFP- of 0.381.
The value for `COc1ccc(-c2cc(=O)c3c(OC)c(OC)c(OC)c(OC)c3o2)cc1OC` [Nobiletin] was 0.889.
As to `CCn1c(=O)c2c(nc(/C=C/c3ccc(OC)c(OC)c3)n2C)n(CC)c1=O` [Istradefylline], the GFP- worked out at 0.882.
Turning to `CC(=O)O[C@@]12CO[C@@H]1C[C@H](O)[C@@]1(C)C(=O)[C@H](O)C3=C(C)[C@@H](OC(=O)[C@H](O)[C@@H](NC(=O)OC(C)(C)C)c4ccccc4)C[C@@](O)([C@@H](OC(=O)c4ccccc4)[C@H]21)C3(C)C` [Docetaxel], the GFP- stood at 0.447.
The compound `CCc1ccc(/C=C2/SC(=S)NC2=O)cc1` came in with a GFP- of 1.01.
Under `Nc1nc(N)c2nc(-c3cccc(O)c3)c(-c3cccc(O)c3)nc2n1` stands 1.19; under `O=C(O)CC1CC(c2ccccc2)=NO1` (stereo not given), 0.823; under `CC(C)c1ccccc1Cc1cc(C(=O)Nc2ccc(S(=O)(=O)c3ccccc3C(C)(C)C)cc2)c(O)c(O)c1O`, 0.849.
